Experimental data: patent US20110166331A1
These are yes or no findings as the source states them, for the method shown. Some results given as binding are weak or reduced against the parent protein; the word gives no strength. One block for each binder: values may come before it.

The chains behind the UniProt entries cited, without tags or fusion partners. Where a name states a change or a piece, a line headed by the entry shows the natural chain unless it says otherwise.
UniProt Q96F46: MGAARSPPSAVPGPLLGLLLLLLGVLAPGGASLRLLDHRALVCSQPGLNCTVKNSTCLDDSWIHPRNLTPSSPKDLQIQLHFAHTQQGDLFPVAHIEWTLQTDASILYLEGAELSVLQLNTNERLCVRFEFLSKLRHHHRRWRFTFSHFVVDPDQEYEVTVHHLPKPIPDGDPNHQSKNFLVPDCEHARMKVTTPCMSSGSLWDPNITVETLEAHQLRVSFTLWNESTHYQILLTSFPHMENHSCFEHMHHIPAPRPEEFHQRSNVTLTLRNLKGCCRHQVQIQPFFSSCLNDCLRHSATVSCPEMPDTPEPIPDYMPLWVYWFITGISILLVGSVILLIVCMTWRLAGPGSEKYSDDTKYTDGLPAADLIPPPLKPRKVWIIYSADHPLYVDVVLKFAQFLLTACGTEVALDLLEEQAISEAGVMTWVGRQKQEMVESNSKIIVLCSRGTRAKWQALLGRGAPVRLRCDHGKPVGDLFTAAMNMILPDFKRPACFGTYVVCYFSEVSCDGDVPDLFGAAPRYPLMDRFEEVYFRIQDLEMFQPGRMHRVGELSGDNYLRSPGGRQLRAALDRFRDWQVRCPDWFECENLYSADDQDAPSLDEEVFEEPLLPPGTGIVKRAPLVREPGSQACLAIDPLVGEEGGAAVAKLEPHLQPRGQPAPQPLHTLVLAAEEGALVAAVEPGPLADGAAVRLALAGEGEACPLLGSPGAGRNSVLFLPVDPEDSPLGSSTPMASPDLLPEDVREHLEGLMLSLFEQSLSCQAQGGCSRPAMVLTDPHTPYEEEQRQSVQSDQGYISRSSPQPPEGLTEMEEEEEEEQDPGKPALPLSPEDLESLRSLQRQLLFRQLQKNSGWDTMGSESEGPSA

Target: huIL-17RA-FLAG-polyHis (human) (UniProt Q96F46)
Experiment: multiplexed Luminex bead cross-competition

binding: binds
B1: AMH7/AML7 (antibody, IgG2, V domains shown)
VH: QVQLVQSGAEVKKPGASVKVSCKASGYTLTRYGISWVRQAPGQGLEWMGWISAYNGNTNYAQKLQGRVTMTTDTSTSTAYMELRSLRSDDTAVYYCARRDYDILTGYYNGFDPWGQGTLVTVSS
VL: DIQMTQSPSSLSASVGDRVTITCRASQGIRNDLGWYQQKPGKAPKRLIYAASSLQSGVPSRFSGSGSGTEFTLTISSLQPEDFATYYCLQHKSYPLTFGGGTKVEIK

binding: binds
B2: AMH6/AML6 (antibody, IgG2, V domains shown)
VH: B1 VH
VL: B1 VL
